Experimental findings from paper PMC7819943, “Rice protein-binding microarrays: a tool to detect cis-acting elements near promoter regions in rice” are described below.

Some of the results follow.

In this assay the target is T1, OsSMF1 (Oryza sativa, UniProt Q6ZLB0 1-436).
T1 sequence: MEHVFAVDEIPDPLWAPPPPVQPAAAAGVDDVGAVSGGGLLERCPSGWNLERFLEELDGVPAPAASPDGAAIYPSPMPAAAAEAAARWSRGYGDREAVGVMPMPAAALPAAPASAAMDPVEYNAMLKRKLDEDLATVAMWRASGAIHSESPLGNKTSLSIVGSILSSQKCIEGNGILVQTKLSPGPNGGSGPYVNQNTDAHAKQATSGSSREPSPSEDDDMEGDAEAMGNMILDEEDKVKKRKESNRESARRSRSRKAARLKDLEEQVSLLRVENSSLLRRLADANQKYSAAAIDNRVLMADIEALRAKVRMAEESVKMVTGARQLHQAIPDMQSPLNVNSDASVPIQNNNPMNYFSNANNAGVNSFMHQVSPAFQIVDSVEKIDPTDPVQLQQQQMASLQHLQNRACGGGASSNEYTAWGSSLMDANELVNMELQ
The assay is described as follows: protein-binding microarray (RPBM); PBS, 2% BSA, 51.3 ng/ul salmon testes DNA, 50 uM zinc acetate, 200 nM TF, 25 C, 1 h; high values mean tight binding. Particulars: protein: recombinant; tags: N-terminal polyhistidine and DsRed monomer fusion (pET32a); chain copies: 2; label: CyDye5-dUTP incorporated in the synthesized complementary strand; 3' TTTTT single-stranded linker to array surface; dsDNA, one strand shown. The procedure, abridged:
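For the binding signal, per-feature fluorescence intensity was read in arbitrary units on an Axon 4000B scanner. Before scanning, a 2% BSA-blocked custom Agilent array made double-stranded with Cy5-dUTP was washed after 1 h at 25 °C with 200 nM protein and 50 µM zinc acetate. The proteins were Ni–NTA-purified transcription factors with N-terminal polyhistidine and DsRed fusions, expressed in E. coli BL21-CodonPlus.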
With “AATCCAGTCCAGGACACGACACCCTCCCTACTCTCTCCACCGGAGTCACCTAGTGCAG”, the binding signal is 3240 fluorescence intensity (a.u.).
“GCCAAAAGGCAAACGACAGCGTTGTTTGTTGCCGCGAGAACGGAGTCACCTAGTGCAG”: the binding signal is 3600 fluorescence intensity (a.u.).
For “GCCTGGTACCTGGTATCTGGGTATCATGGTTAGGTGTCAGCGGAGTCACCTAGTGCAG” the value was 4700 fluorescence intensity (a.u.); for “CCGCCACCGCGTCGCCCGTCGCCGGCCGTAGACGCCCTCCCGGAGTCACCTAGTGCAG”, 3250 fluorescence intensity (a.u.).
On to “ACCTGTTTCGTTCGTCCACGCCAGCGCCAACCGGACATGACGGAGTCACCTAGTGCAG”, for which the binding signal is 5610 fluorescence intensity (a.u.).
To “GGAAGGCTGATCTGAAACTGGCGTGGCACCAGCCGTGTTTCGGAGTCACCTAGTGCAG” belongs 7960 fluorescence intensity (a.u.); to “ACTACTTATTGTTCTTCAAACTACATGTCAGTAACTACGTCGGAGTCACCTAGTGCAG”, 24400 fluorescence intensity (a.u.).
In the case of “CTGTGCGGGGCGGTGCTCCAGGACAGGCGGCGGCGTCAGGCGGAGTCACCTAGTGCAG”, the binding signal was 3260 fluorescence intensity (a.u.).
Regarding “GCTGGCACCGTCGCAGGCACGTGGACTGAACACCGGGCCCCGGAGTCACCTAGTGCAG”, the binding signal was 4660 fluorescence intensity (a.u.).
Turning to “ACGAATTGGGAGGGGTAAAATGGCATAATGGTAATTAATACGGAGTCACCTAGTGCAG”, the binding signal is 3200 fluorescence intensity (a.u.).
On to “GCCCCATCATCGGCCATCCGAGTCAACCGAGTGAGCCACCCGGAGTCACCTAGTGCAG”, for which the binding signal was 4920 fluorescence intensity (a.u.).
“TAATTTGGACCAGGCAGTGACGTTTGCAGTAATCGCAATCCGGAGTCACCTAGTGCAG”: the binding signal is 6220 fluorescence intensity (a.u.).
On to “GAGGGATCGTGTCCGCATCAACCGGGCCAACGTGCCTATGCGGAGTCACCTAGTGCAG”, for which the binding signal is 3430 fluorescence intensity (a.u.).
For “CCCGAATAGGTTGAGGGTAACCAAGACATTGAGACTTGAGCGGAGTCACCTAGTGCAG”, the binding signal is 3290 fluorescence intensity (a.u.).
For “GAGGGCAGCCTCCGGATGCCGTCGTCACCGACATGAGGTACGGAGTCACCTAGTGCAG” the value was 3230 fluorescence intensity (a.u.); for “GAGGCATACTGGCGAGTGGCGACTACAGAGATGGTGGCAACGGAGTCACCTAGTGCAG”, 22000 fluorescence intensity (a.u.); for “TACGAAATAGAAATGCTGACAGAACGCGTGTAGCGTTTGACGGAGTCACCTAGTGCAG”, 4810 fluorescence intensity (a.u.).
Turning to “CAATACAACTAACCAAACAGCTACATATGTATTCTTCTGGCGGAGTCACCTAGTGCAG”, the binding signal is 4100 fluorescence intensity (a.u.).
For “CTGATTTATGATAGGACATGACACACTACCTCTACATGTTCGGAGTCACCTAGTGCAG” the value was 4490 fluorescence intensity (a.u.); for “CTCGAAACGGGCTAAGTTAATGGGCTTTCGGCCCATGTGGCGGAGTCACCTAGTGCAG”, 3330 fluorescence intensity (a.u.); for “GCATAGGAATTACGGTGTGACAAATGTTTACCACTGTTACCGGAGTCACCTAGTGCAG”, 3150 fluorescence intensity (a.u.).
Take “CGCTTTCCTTCCTCCTCTCCACCTCAGCCGCCGGCCACGACGGAGTCACCTAGTGCAG”: the binding signal is 5190 fluorescence intensity (a.u.).
For “GTTAAGGAACAAGGACATATGCCACATCATTTTGGCCGAACGGAGTCACCTAGTGCAG”, the binding signal is 7640 fluorescence intensity (a.u.).
Turning to “GTAAAGCCTCGATATATCGATCGATTCCAGCTGTGGCACCCGGAGTCACCTAGTGCAG”, the binding signal was 3620 fluorescence intensity (a.u.).
“ATATGCCCTTAAATGATGCTGACGATGTAAATGAGCCTCTCGGAGTCACCTAGTGCAG”: the binding signal is 7850 fluorescence intensity (a.u.).
“CATTGAATTTGACGCCGCCGTTGCTCATGTACCTCGATGCCGGAGTCACCTAGTGCAG”: the binding signal was 3170 fluorescence intensity (a.u.).
As for “AATGTCACATTGTGACGTGCTTACACAATGCCACCTAATCCGGAGTCACCTAGTGCAG”, the binding signal is 7300 fluorescence intensity (a.u.).
To “ATTTGTCGGTCCACCTCTATTTCACGCCAACTATTTTATGCGGAGTCACCTAGTGCAG” belongs 3180 fluorescence intensity (a.u.).
On to “TTATTGTAGCACCACATTGTCAAATCATGGCGCAAGTAGGCGGAGTCACCTAGTGCAG”, for which the binding signal was 23000 fluorescence intensity (a.u.).
“TCAAACTGCTGACGTACGCACGCCGTGAGACGCCGCCGCACGGAGTCACCTAGTGCAG”: the binding signal was 15400 fluorescence intensity (a.u.).
Take “ACAATGAGATTGTGTCACTGTCAGTCTGTCACTGATCACTCGGAGTCACCTAGTGCAG”: the binding signal was 3640 fluorescence intensity (a.u.).
With “ATTCTGTGGTGGTAAAGACGTTAAACGTGTATGACTCCACCGGAGTCACCTAGTGCAG”, the binding signal is 3500 fluorescence intensity (a.u.).
As for “TCCACATGCTAATTTGTGGTGTCAGATACCTGAATACTCCCGGAGTCACCTAGTGCAG”, the binding signal is 41400 fluorescence intensity (a.u.).
Consider “CGCCGCCGCCGCCGTGGCGCCGCCCTCCTCCTCTCCCGCCCGGAGTCACCTAGTGCAG”, for which the binding signal was 5660 fluorescence intensity (a.u.).
For “AAACTGAAATGGGCCCACCCACCTCTCGTCTGCTACGTGGCGGAGTCACCTAGTGCAG”, the binding signal is 5310 fluorescence intensity (a.u.).
“CTGACGAGCAGAACATTAGCTATCCTATCCAGAATAGTTTCGGAGTCACCTAGTGCAG”: the binding signal was 47400 fluorescence intensity (a.u.).
For “ACTCTTCATTCTTTTAATCTCATCTAGCTAGGAGATACACCGGAGTCACCTAGTGCAG”, the binding signal is 13000 fluorescence intensity (a.u.).
For “TGACTTCACCGCACCGCGCCAGAGAGGGGAGGTGTCACTTCGGAGTCACCTAGTGCAG” the value was 3760 fluorescence intensity (a.u.).
Turning to “TAGCTAGCATGAATATGCAGCTGCCTGCCTGCAGCCACGTCGGAGTCACCTAGTGCAG”, the binding signal was 5900 fluorescence intensity (a.u.).
For “CAGTCGTCAGGCAGCACACAAGCGAGAAAGGTTTGCAAACCGGAGTCACCTAGTGCAG” the value was 31700 fluorescence intensity (a.u.).
As to “TATGTTATCGTTACCCAACTTAATCGCACAACATCGCATTCGGAGTCACCTAGTGCAG”, the binding signal was 3340 fluorescence intensity (a.u.).
For “CTTTGCCCGCCGATGATGCGTGCGGTGTCCAATTGTTCTCCGGAGTCACCTAGTGCAG”, the binding signal was 3260 fluorescence intensity (a.u.).
